The values that follow come from PubChem BioAssay AID445 (National Center for Advancing Translational Sciences (NCATS), 2006).

This assay is described as follows: IkB Signaling. The settings on record: ABC-DLBCL IkBa-CBG/CBR dual luciferase ratio (green luciferase fused to IkBa over red control in OCI-Ly3 lymphoma cells), 4 h. The gist of the method:
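In this assay, an IκBα–CBG68 fusion accumulates when IKK-driven degradation is blocked; native CBR normalizes for cell number. OCI-Ly3 cells were treated 4 h with compound and doxycycline, then green and red light read after Chroma-Glo addition.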

[1] abbreviates: measured here: control luc red channel unless noted.

Molecules are shown by their SMILES. The list shows a part of the results. Shown are side measurements of this screen, not its main read-out; they come without a call. Compounds called inactive in the main read-out are mostly missing here. Words in brackets tell the shape of the fitted curve; partial curves, single points and poor fits give uncertain potencies.

What is called AC50 is the concentration giving half of the maximal activity seen. For `CCCCC(=O)Oc1ccc2oc(-c3ccc(OC)cc3)cc(=O)c2c1`, under setting [1], the AC50 was 39.8 µM [falling, single point].
Consider `CCCCCCCCCCCCCCCCCC(=O)O[C@H](CC(=O)O)C[N+](C)(C)C`, for which the AC50 under setting [1] is 7.94 µM [falling, full curve, poor fit] [measured here: IkB-luc green channel].
As to `CCn1c(SCC(=O)Nc2ccc(N3CCOCC3)c(Cl)c2)nnc1-c1ccc(N)cc1`, under setting [1], the AC50 is 20 µM [falling, partial curve].
As to `C=CCn1c(SCC(=O)c2ccc(O)c(O)c2)nnc1-c1ccccc1OC`, the AC50 under setting [1] was 7.94 µM [falling, partial curve].
As to `CCCc1cc(=O)[nH]c2nnc(SCC(=O)Nc3ccc(OC)cc3)n12`, the AC50 under setting [1] was 2 µM [rising, full curve].
Regarding `O=C(Nc1ccccc1C(=O)OCc1cc(=O)n2ccsc2n1)c1ccc(Cl)cc1`, the half-maximal activity concentration (AC50) under setting [1] was 0.316 µM [falling, full curve].
As to `O=C(Nc1ccncc1)Nc1ccccn1`, under setting [1], the half-maximal activity concentration (AC50) was 15.8 µM [falling, partial curve].
Still for that read-out and setting: the figure for `COc1ccccc1CNC(=O)CCNS(=O)(=O)c1ccc2c(c1)CCCC(=O)N2` is 39.8 µM [falling, partial curve].
With `Cc1ccc(Cl)cc1NC(=O)Nc1nnc(N2CCCC(C)C2)s1` (centres undefined), under setting [1], the AC50 is 15.8 µM [falling, single point].
Still for that read-out and setting: the result for `Cc1cc(C)c2oc(C(=O)Nc3ccc(S(=O)(=O)N4CCC(C)CC4)cc3)cc(=O)c2c1` reads 2.51 µM [rising, full curve]; that for `Cc1cc(C)n2c(Nc3ccccc3)c(-c3ccccc3)nc2n1`, 31.6 µM [falling, partial curve]; that for `CCn1c(=O)cc(OCC(=O)N2CCN(c3ccccc3OC)CC2)c2ccccc21`, 10 µM [falling, partial curve, poor fit].
For `CCN(CC)S(=O)(=O)c1csc(C(=O)NCc2ccccc2)c1`, under setting [1], the AC50 was 31.6 µM [falling, single point].
On the same count and under the same terms, the figure for `Cc1cccc(Cn2nnc(C(=O)Nc3cc(C)ccc3C)c2N)c1` is 12.6 µM [falling, partial curve].
Same read-out and setting: the figure for `COc1cccc(NC(=O)C2CCN(c3nc4ccccc4nc3C(F)(F)F)CC2)c1` is 31.6 µM [falling, partial curve]; for `O=C1C=CC(=O)c2c1ccc1c2ccc2ccccc21` it is 10 µM [rising, partial curve] [measured here: IkB-luc green channel].
Consider `Cc1cc(NC(=O)CC2CCCC2)n(-c2nc3ccccc3[nH]2)n1`, for which the concentration at half-maximal activity (AC50) under setting [1] is 31.6 µM [rising, single point] [measured here: IkB-luc green channel].
As for `CCOC(=O)c1c(C)oc2nc(C)nc(NCCCN3CCN(c4ccc(F)cc4)CC3)c12`, the AC50 under setting [1] is 6.31 µM [rising, single point].
On the same count and under the same terms, the figure for `O=C(/C=N/O)Nc1ccc(F)cc1` is 3.98 µM [falling, partial curve].
For the molecule `COc1ccccc1NC(=O)c1ccc2oc(=O)c(S(=O)(=O)c3ccccc3)cc2c1`, the AC50 by setting is: (measured here: IkB-luc green channel) 7.94 µM [rising, full curve]; (measured here: control luc red channel) 15.8 µM [falling, partial curve].
With `CCOc1ccc(C2c3c(oc4ccccc4c3=O)C(=O)N2c2nnc(C)s2)cc1OC` (centres undefined), under setting [1], the AC50 is 5.01 µM [rising, full curve].
On the same count and under the same terms, the figure for `COc1ccc(-c2cc(C(=O)OCC(=O)N3CCCC3)c3ccccc3n2)cc1` is 25.1 µM [falling, partial curve].
With `CCC(=O)Nc1ccc2c(c1)ncn2-c1ccccc1OC`, the AC50 under setting [1] is 15.8 µM [falling, partial curve].
Still for that read-out and setting: the figure for `O=C(CN1C=NS(=O)(=O)c2ccc(C(F)(F)F)cc21)Nc1cccc(C(F)(F)F)c1` is 39.8 µM [falling, single point]; for `COc1ccc(Nc2c3c(nc4ccc(NC(=O)/C=C/c5cccc(OC)c5OC)cc24)CCCC3)cc1OC` it is 39.8 µM [falling, single point]; for `CCOC(=O)c1cccc(NC(=O)CSc2nc3cccnc3n2C)c1` it is 10 µM [falling, partial curve].
Still for that read-out and setting: the figure for `CCOc1ccc(C2CC(=O)c3c([nH]c(C(=O)OC4CCC(C)CC4)c3C)C2)cc1` (centres undefined) is 15.8 µM [falling, single point]; for `COC(=O)c1cc(=O)n(Cc2ccco2)c(=Nc2ccc(F)c(Cl)c2)s1` it is 3.16 µM [falling, full curve].
For the molecule `CCn1c(/C(C#N)=C/c2ccccc2Cl)nc2ccccc21`, the AC50 under setting [1] is 6.31 µM [falling, partial curve].
Still for that read-out and setting: the result for `CCc1cccc(NC(=O)CSc2nc3ccsc3c(=O)n2CC)c1` reads 20 µM [falling, partial curve]; that for `Cc1ccc(CNC(=O)Cn2c(=O)n(Cc3ccccc3)c(=O)c3sc4ccccc4c32)cc1`, 2 µM [rising, full curve]; that for `O=C(Cn1c(S(=O)(=O)Cc2ccccc2)nc2ccccc21)N1CCCCC1`, 3.16 µM [rising, single point].
Same read-out and setting: the figure for `Cc1ccc(CN(Cc2cccn2-c2nnc(N3CCCC3=O)s2)C(=O)Nc2ccccc2C(F)(F)F)cc1` is 10 µM [falling, partial curve]; for `Cc1cc(C)c2sc(NC(=O)c3ccc(S(=O)(=O)N4CCOCC4)cc3)nc2c1` it is 0.0631 µM [falling, full curve].
For the molecule `Cn1c(=O)n(C)c2cc(N3CCOCC3)c(NC(=O)c3c(F)cccc3F)cc21`, under setting [1], the AC50 is 7.94 µM [rising, single point].
On the same count and under the same terms, the result for `O=C(NC1CC(=O)N(c2cccc(F)c2)C1)C(c1ccccc1)c1ccccc1` (centres undefined) reads 12.6 µM [falling, partial curve]; that for `CCC1C(=O)OCC1Cc1cncn1C` (centres undefined), 7.94 µM [rising, partial curve, poor fit]; that for `Cn1c(-c2c(N)n(C3CCCC3)c3nc4ccccc4nc23)nc2ccccc21`, 10 µM [falling, partial curve].
Regarding `C=CCc1ccc(OCc2ccc(C(=O)Nc3ccc(NC(C)=O)cc3)o2)c(OC)c1`, the AC50 under setting [1] was 12.6 µM [falling, partial curve].
Same read-out and setting: the result for `CCCC1(c2ccccc2)NC(=O)N(CC(=O)c2[nH]c(C)c(C(=O)OCC)c2C)C1=O` (centres undefined) reads 31.6 µM [falling, single point].
Same read-out and setting: the result for `COc1cccc(NC(=O)Cn2cc(C(=O)c3ccc(F)cc3)c(=O)c3cc(OC)ccc32)c1` reads 7.94 µM [falling, partial curve]; that for `Cc1cccc(Cn2cnc3c(oc4ccccc43)c2=O)c1`, 0.126 µM [falling, full curve, poor fit]; that for `CCCn1c(=O)c(C(=O)Nc2ccccc2C(=O)OC)c(O)c2ccccc21`, 0.2 µM [falling, full curve].
As for `N#Cc1ccc(NC2=NS(=O)(=O)c3ccccc32)cc1`, the AC50 under setting [1] was 3.98 µM [rising, partial curve].
For the molecule `CCC(=O)N1CCc2cc(CNS(=O)(=O)c3ccc(Br)s3)ccc21`, under setting [1], the AC50 is 1 µM [falling, partial curve].
Regarding `Cc1ccc(C)c(N2C(=O)N(C)c3ccccc3S2(=O)=O)c1`, the concentration at half-maximal activity (AC50) under setting [1] is 0.501 µM [rising, full curve, poor fit].
Same read-out and setting: the figure for `NC(=O)C1CCN(C(=O)CCCCCn2c(=O)[nH]c3ccsc3c2=O)CC1` is 15.8 µM [falling, partial curve].
Same read-out and setting: the figure for `c1ccc(-c2cc(N3CCCCCC3)n[nH]2)cc1` is 12.6 µM [falling, partial curve]; for `CCC(CC)C(=O)Nc1c2cnn(-c3ccccc3)c2nc(=O)n1-c1ccccc1` it is 15.8 µM [falling, partial curve].
Still for that read-out and setting: the result for `O=c1cc(-c2ccc(F)cc2)nc(SCc2nc(-c3cccc(C(F)(F)F)c3)no2)[nH]1` reads 25.1 µM [falling, single point].
On to `Cc1c(C(=O)N(Cc2cccc(F)c2)C2CCS(=O)(=O)C2)oc2cc(Br)ccc12` (centres undefined), for which the AC50 under setting [1] was 25.1 µM [falling, partial curve].
The same measure, in the same setting: the result for `COc1ccc(NC(=O)CN2C(=O)C3(SCC(=O)N3c3ccccc3)c3ccccc32)cc1Cl` (centres undefined) reads 0.0316 µM [falling, full curve, poor fit]; that for `COc1ccc(CNC(=O)c2cccc(N3CCCS3(=O)=O)c2)cc1OC`, 15.8 µM [falling, partial curve].
For `CCc1ccc(N2C(=O)CSC23C(=O)N(Cc2cccc(OC)c2)c2ccccc23)cc1` (centres undefined), the AC50 under setting [1] is 3.16 µM [falling, partial curve].
The same measure, in the same setting: the result for `O=C(NCc1ccc(F)cc1)c1ccc(Cn2c(SCc3ccc(F)cc3)nc3cccnc32)cc1` reads 3.16 µM [falling, full curve].
As for `CCN(CCCNC(=O)c1cc2cc3ccc(OC)cc3nc2s1)c1cccc(C)c1`, under setting [1], the AC50 is 0.126 µM [falling, full curve, poor fit].
The same measure, in the same setting: the figure for `O=C(Nc1ccc2oc(-c3ccccc3)nc2c1)c1cccnc1` is 39.8 µM [falling, single point]; for `CCC(C)NC(=O)c1ccc2c(c1)N(Cc1ccccc1F)C(=O)c1ccccc1S2=O` (centres undefined) it is 10 µM [falling, partial curve]; for `O=C(CCC(=O)N1CCSc2ccccc21)NCc1ccccc1Cl` it is 31.6 µM [falling, single point].
With `Cn1c(=O)oc2cc(S(=O)(=O)NCCC(=O)NCc3ccc(F)cc3)ccc21`, the AC50 under setting [1] was 39.8 µM [falling, single point].
The same measure, in the same setting: the result for `O=C(Nc1ccc2c(c1)nc1n2CCSC1)c1ccccc1` reads 3.98 µM [falling, full curve]; that for `CCN(C(=O)Cn1c(=O)nc(-c2ccccc2)c2cc(Cl)ccc21)c1cccc(C)c1`, 39.8 µM [falling, single point]; that for `CCc1cccc(NC(=O)C2CCC(CNS(=O)(=O)c3ccc4c(c3)CCCC(=O)N4)CC2)c1` (centres undefined), 20 µM [falling, partial curve].
